Values from PubChem BioAssay AID1259254 (NCATS, 2017)
Assay: 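Gene knock-downs that lead to re-replication, shown by excess G2 DNA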 (primary screen). Cells: human HCT116 colorectal cancer cells. Knock-down reagent: single siRNA against human genes. Duration: 3 days. Measurement: 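Nuclei stained with Hoechst and imaged; cell-cycle phase assigned by DNA content; G2 share scaled per plate, non-targeting siRNA 0%, GMNN siRNA 100%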. Scale: G2 robust z-score and G2 cells, % of GMNN control: higher = more G2 cells, more excess DNA replication. Active means: 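An siRNA counts as active if its G2 robust z-score lies at least 5 MADs above the screen median; here such calls match roughly 38% of GMNN control or more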.
The whole screen tested about 59,000 reagents; this is an unselected part. Over the whole deposit, about 1,550 (2.6%) were called active. 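G2 share is only a proxy for re-replication; each gene was hit by three separate siRNAs, and active genes were retested.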 The numbers tell different reagents against one gene apart. Not all columns of the deposit are shown. The record does not give: the amount of reagent.

MXRA7 #1
- G2 robust z-score: -0.356
- G2 cells, % of GMNN control: 0.464
- call: inactive

MXRA7 #2
- G2 robust z-score: -0.213
- G2 cells, % of GMNN control: 1.47
- call: inactive

MXRA7 #3
- G2 robust z-score: 0.942
- G2 cells, % of GMNN control: 9.59
- call: inactive

GOLGA7B #1
- G2 robust z-score: -1.1
- G2 cells, % of GMNN control: -4.8
- call: inactive

GOLGA7B #2
- G2 robust z-score: -0.621
- G2 cells, % of GMNN control: -1.4
- call: inactive

GOLGA7B #3
- G2 robust z-score: -0.345
- G2 cells, % of GMNN control: 0.541
- call: inactive

TMEM86A #1
- G2 robust z-score: -0.183
- G2 cells, % of GMNN control: 1.68
- call: inactive

TMEM86A #2
- G2 robust z-score: -0.554
- G2 cells, % of GMNN control: -0.934
- call: inactive

TMEM86A #3
- G2 robust z-score: 1.51
- G2 cells, % of GMNN control: 13.6
- call: inactive

FAM47C #1
- G2 robust z-score: -0.49
- G2 cells, % of GMNN control: -0.477
- call: inactive

FAM47C #2
- G2 robust z-score: 1.51
- G2 cells, % of GMNN control: 13.6
- call: inactive

FAM47C #3
- G2 robust z-score: -0.74
- G2 cells, % of GMNN control: -2.24
- call: inactive

PLEKHH3 #1
- G2 robust z-score: 1.4
- G2 cells, % of GMNN control: 12.8
- call: inactive

PLEKHH3 #2
- G2 robust z-score: 0.0632
- G2 cells, % of GMNN control: 3.41
- call: inactive

PLEKHH3 #3
- G2 robust z-score: -0.787
- G2 cells, % of GMNN control: -2.57
- call: inactive

CCDC169 #1
- G2 robust z-score: -0.803
- G2 cells, % of GMNN control: -2.68
- call: inactive

CCDC169 #2
- G2 robust z-score: 1.1
- G2 cells, % of GMNN control: 10.7
- call: inactive

CCDC169 #3
- G2 robust z-score: 0.476
- G2 cells, % of GMNN control: 6.31
- call: inactive

GPR152 #1
- G2 robust z-score: 4.17
- G2 cells, % of GMNN control: 32.3
- call: inactive

GPR152 #2
- G2 robust z-score: -0.17
- G2 cells, % of GMNN control: 1.77
- call: inactive

GPR152 #3
- G2 robust z-score: 0.269
- G2 cells, % of GMNN control: 4.86
- call: inactive

ASB12 #1
- G2 robust z-score: 0.7
- G2 cells, % of GMNN control: 7.89
- call: inactive

ASB12 #2
- G2 robust z-score: -0.983
- G2 cells, % of GMNN control: -3.95
- call: inactive

ASB12 #3
- G2 robust z-score: -0.796
- G2 cells, % of GMNN control: -2.63
- call: inactive

SNRNP35 #1
- G2 robust z-score: 0.248
- G2 cells, % of GMNN control: 4.71
- call: inactive

SNRNP35 #2
- G2 robust z-score: -0.221
- G2 cells, % of GMNN control: 1.41
- call: inactive

SNRNP35 #3
- G2 robust z-score: -1.13
- G2 cells, % of GMNN control: -4.98
- call: inactive

HS2ST1 #1
- G2 robust z-score: 0.468
- G2 cells, % of GMNN control: 6.26
- call: inactive

HS2ST1 #2
- G2 robust z-score: -0.0703
- G2 cells, % of GMNN control: 2.47
- call: inactive

HS2ST1 #3
- G2 robust z-score: -0.377
- G2 cells, % of GMNN control: 0.313
- call: inactive

Part of the list above, showing only “G2 robust z-score”.
GOLGA7B #3	-0.345
TMEM86A #1	-0.183
TMEM86A #2	-0.554
TMEM86A #3	1.51
FAM47C #1	-0.49
